Consider twelve compounds from paper PMC10683472, “Deep Learning-Driven Library Design for the De Novo Discovery of Bioactive Thiopeptides” (ACS Central Science, 2023).

*1 amine or outer side, *2 acyl side, *3 side chain or, on linkers, in order; H or OH if unused. Where a SMILES comes first, the peptide text is derived from it. Bridges are numbered along the chain shown (N, C = ends). [ ]: non-standard residue; d: D form. X2 = C=C(N[*:2])c1nc(-c2nc(-c3nc(C(=O)OC)cs3)ccc2C(=O)[*:1])cs1; Nle = CCCC[C@H](N)C(=O)O; Dha = C=C(N)C(=O)O

In the data set the test system is LazBCDEF. The data set can be described thus: Enzymatic maturation with Laz enzymes, LC/MS analysis. To be noted: semiquantitative LC/MS of the in vitro translated precursor treated with Laz enzymes. In kind it is biochemical. Set-up: key: +++/++/+/– scale; +++/++/+/– scale; +++/++/+/– scale; +++/++/+/– scale.
In the case of `C=C1NC(=O)C(=CC)NC(=O)[C@H](Cc2c[nH]c3ccccc23)NC(=O)[C@H](Cc2c[nH]cn2)NC(=O)[C@H](Cc2c[nH]c3ccccc23)NC(=O)[C@H]([C@@H](C)O)NC(=O)[C@H]([C@@H](C)CC)NC(=O)[C@H](Cc2ccccc2)NC(=O)[C@H](CCC(N)=O)NC(=O)[C@H](CCCNC(=N)N)NC(=O)[C@H](CCCCN)NC(=O)[C@H](CCCC)NC(=O)[C@H](CO)NC(=O)[C@H](Cc2c[nH]c3ccccc23)NC(=O)c2ccc(-c3nc(C(=O)OC)cs3)nc2-c2csc1n2` [IR1] (HELM PEPTIDE1{W.S.[Nle].K.R.Q.F.I.T.W.H.W.[CC=C(N[*:1])C(=O)[*:2]]}|CHEM1{[C=C(N[*:2])c1nc(-c2nc(-c3nc(C(=O)OC)cs3)ccc2C(=O)[*:1])cs1]}$PEPTIDE1,CHEM1,1:R1-1:R1|PEPTIDE1,CHEM1,13:R2-1:R2$$$V2.0; bridges inferred), the maturation experimental result is recorded as “+++”.
The entry for `C=C1NC(=O)[C@H](CCCCN)NC(=O)[C@H](Cc2ccc(O)cc2)NC(=O)[C@H]([C@@H](C)CC)NC(=O)[C@H](CCCNC(=N)N)NC(=O)[C@H](CCCNC(=N)N)NC(=O)[C@H](CCCCN)NC(=O)[C@H](Cc2ccccc2)NC(=O)[C@H](CC(C)C)NC(=O)[C@H](CCSC)NC(=O)[C@H](CO)NC(=O)[C@H](Cc2c[nH]c3ccccc23)NC(=O)c2ccc(-c3nc(C(=O)OC)cs3)nc2-c2csc1n2` [IR5] (HELM PEPTIDE1{W.S.M.L.F.K.R.R.I.Y.K}|CHEM1{[C=C(N[*:2])c1nc(-c2nc(-c3nc(C(=O)OC)cs3)ccc2C(=O)[*:1])cs1]}$PEPTIDE1,CHEM1,1:R1-1:R1|PEPTIDE1,CHEM1,11:R2-1:R2$$$V2.0; bridges inferred) is “+++”; for `C=C1NC(=O)[C@H](CCCCN)NC(=O)[C@H](Cc2c[nH]c3ccccc23)NC(=O)[C@H]([C@@H](C)O)NC(=O)[C@H](CCCNC(=N)N)NC(=O)[C@H](CCCNC(=N)N)NC(=O)[C@H](CCCCN)NC(=O)[C@H](Cc2c[nH]c3ccccc23)NC(=O)[C@H](CCCC(N)=O)NC(=O)[C@H](CC(C)C)NC(=O)[C@H]([C@@H](C)O)NC(=O)[C@H](Cc2c[nH]c3ccccc23)NC(=O)c2ccc(-c3nc(C(=O)OC)cs3)nc2-c2csc1n2` [IR8] (HELM PEPTIDE1{W.T.L.[O=C([C@H](CCCC(=O)[*:3])N[*:1])[*:2]].W.K.R.R.T.W.K}|PEPTIDE2{[am]}|CHEM1{[C=C(N[*:2])c1nc(-c2nc(-c3nc(C(=O)OC)cs3)ccc2C(=O)[*:1])cs1]}$PEPTIDE1,PEPTIDE2,4:R3-1:R1|PEPTIDE1,CHEM1,1:R1-1:R1|PEPTIDE1,CHEM1,11:R2-1:R2$$$V2.0; bridges inferred) it is “+++”.
The result for `C=C1NC(=O)[C@H](Cc2c[nH]cn2)NC(=O)[C@@H]2CCCN2C(=O)[C@H](CCCNC(=N)N)NC(=O)[C@H](CCCNC(=N)N)NC(=O)[C@H](CCCNC(=N)N)NC(=O)[C@H](C)NC(=O)[C@H](Cc2c[nH]c3ccccc23)NC(=O)[C@H](Cc2ccc(O)cc2)NC(=O)[C@H](CC(C)C)NC(=O)[C@H](CO)NC(=O)[C@H](CCSC)NC(=O)[C@H](C)NC(=O)[C@H](Cc2c[nH]c3ccccc23)NC(=O)c2ccc(-c3nc(C(=O)OC)cs3)nc2-c2csc1n2` [IR11] (HELM PEPTIDE1{W.A.M.S.L.Y.W.A.R.R.R.P.H}|CHEM1{[C=C(N[*:2])c1nc(-c2nc(-c3nc(C(=O)OC)cs3)ccc2C(=O)[*:1])cs1]}$PEPTIDE1,CHEM1,1:R1-1:R1|PEPTIDE1,CHEM1,13:R2-1:R2$$$V2.0) reads “+++”; that for `C=C1NC(=O)[C@H](Cc2c[nH]c3ccccc23)NC(=O)CNC(=O)[C@H](C(C)C)NC(=O)[C@H](CC(N)=O)NC(=O)CNC(=O)CNC(=O)[C@H](Cc2ccc(O)cc2)NC(=O)[C@@H]2CCCN2C(=O)[C@H](CC(N)=O)NC(=O)[C@H]([C@@H](C)O)NC(=O)[C@H](Cc2c[nH]c3ccccc23)NC(=O)c2ccc(-c3nc(C(=O)OC)cs3)nc2-c2csc1n2` [TL1] (HELM PEPTIDE1{W.T.N.P.Y.G.G.N.V.G.W}|CHEM1{[C=C(N[*:2])c1nc(-c2nc(-c3nc(C(=O)OC)cs3)ccc2C(=O)[*:1])cs1]}$PEPTIDE1,CHEM1,1:R1-1:R1|PEPTIDE1,CHEM1,11:R2-1:R2$$$V2.0; bridges inferred), “+++”; that for `C=C1NC(=O)[C@H](Cc2ccccc2)NC(=O)[C@H](C)NC(=O)[C@H](C(C)C)NC(=O)[C@H](CCCCN)NC(=O)[C@H](CCCNC(=N)N)NC(=O)[C@H](CCC(N)=O)NC(=O)[C@H](CC(C)C)NC(=O)[C@H](Cc2c[nH]c3ccccc23)NC(=O)[C@H](Cc2ccccc2)NC(=O)[C@H](CO)NC(=O)[C@H]([C@@H](C)CC)NC(=O)[C@H](CCCC(N)=O)NC(=O)[C@H](Cc2c[nH]c3ccccc23)NC(=O)c2ccc(-c3nc(C(=O)OC)cs3)nc2-c2csc1n2` [TL3] (HELM PEPTIDE1{W.[O=C([C@H](CCCC(=O)[*:3])N[*:1])[*:2]].I.S.F.W.L.Q.R.K.V.A.F}|PEPTIDE2{[am]}|CHEM1{[C=C(N[*:2])c1nc(-c2nc(-c3nc(C(=O)OC)cs3)ccc2C(=O)[*:1])cs1]}$PEPTIDE1,PEPTIDE2,2:R3-1:R1|PEPTIDE1,CHEM1,1:R1-1:R1|PEPTIDE1,CHEM1,13:R2-1:R2$$$V2.0; bridges inferred), “+++”.
The result for `C=C1NC(=O)[C@H](Cc2ccccc2)NC(=O)[C@H](C)NC(=O)[C@H]([C@@H](C)CC)NC(=O)[C@H](CCCCN)NC(=O)[C@H](CC(N)=O)NC(=O)[C@H](CCC(N)=O)NC(=O)[C@H](CC(N)=O)NC(=O)[C@H]([C@@H](C)O)NC(=O)[C@H](Cc2ccccc2)NC(=O)[C@H](CCCNC(=N)N)NC(=O)[C@H]([C@@H](C)CC)NC(=O)[C@H]([C@@H](C)O)NC(=O)[C@H](Cc2c[nH]c3ccccc23)NC(=O)c2ccc(-c3nc(C(=O)OC)cs3)nc2-c2csc1n2` [TL4] (HELM PEPTIDE1{W.T.I.R.F.T.N.Q.N.K.I.A.F}|CHEM1{[C=C(N[*:2])c1nc(-c2nc(-c3nc(C(=O)OC)cs3)ccc2C(=O)[*:1])cs1]}$PEPTIDE1,CHEM1,1:R1-1:R1|PEPTIDE1,CHEM1,13:R2-1:R2$$$V2.0; bridges inferred) reads “+++”.
`C=C1NC(=O)[C@H]([C@@H](C)CC)NC(=O)[C@H](C)NC(=O)[C@H](CC(C)C)NC(=O)[C@H](CCCCN)NC(=O)[C@H](CO)NC(=O)[C@H](CCC(N)=O)NC(=O)[C@H](CC(C)C)NC(=O)[C@H](CCCNC(=N)N)NC(=O)[C@H](Cc2ccccc2)NC(=O)[C@H](CC(C)C)NC(=O)[C@H](CCCC)NC(=O)[C@H]([C@@H](C)O)NC(=O)[C@H](Cc2c[nH]c3ccccc23)NC(=O)c2ccc(-c3nc(C(=O)OC)cs3)nc2-c2csc1n2` [TL6] (HELM PEPTIDE1{W.T.[Nle].L.F.R.L.Q.S.K.L.A.I}|CHEM1{[C=C(N[*:2])c1nc(-c2nc(-c3nc(C(=O)OC)cs3)ccc2C(=O)[*:1])cs1]}$PEPTIDE1,CHEM1,1:R1-1:R1|PEPTIDE1,CHEM1,13:R2-1:R2$$$V2.0): the maturation experimental result is given as “+++”.
The entry for `C=C1NC(=O)[C@H](Cc2ccc(O)cc2)NC(=O)[C@H](C)NC(=O)[C@H](C(C)C)NC(=O)[C@H](CCCCN)NC(=O)CNC(=O)[C@H](CC(C)C)NC(=O)[C@H](CCCNC(=N)N)NC(=O)[C@@H]2CCCN2C(=O)[C@H](Cc2ccccc2)NC(=O)[C@H](CCCC)NC(=O)[C@H](CCCC)NC(=O)[C@H]([C@@H](C)O)NC(=O)[C@H](Cc2c[nH]c3ccccc23)NC(=O)c2ccc(-c3nc(C(=O)OC)cs3)nc2-c2csc1n2` [TL9] (HELM PEPTIDE1{W.T.[Nle].[Nle].F.P.R.L.G.K.V.A.Y}|CHEM1{[C=C(N[*:2])c1nc(-c2nc(-c3nc(C(=O)OC)cs3)ccc2C(=O)[*:1])cs1]}$PEPTIDE1,CHEM1,1:R1-1:R1|PEPTIDE1,CHEM1,13:R2-1:R2$$$V2.0) is “+++”; for `C=C1NC(=O)CNC(=O)[C@H]([C@@H](C)CC)NC(=O)[C@H]([C@@H](C)CC)NC(=O)CNC(=O)[C@H](CCC(N)=O)NC(=O)CNC(=O)[C@H](CCCC(N)=O)NC(=O)[C@H](Cc2c[nH]c3ccccc23)NC(=O)[C@H](C(C)C)NC(=O)[C@H]([C@@H](C)CC)NC(=O)[C@H](CC(N)=O)NC(=O)[C@H](CO)NC(=O)[C@H](Cc2c[nH]c3ccccc23)NC(=O)c2ccc(-c3nc(C(=O)OC)cs3)nc2-c2csc1n2` [TL10] (HELM PEPTIDE1{W.S.N.I.V.W.[O=C([C@H](CCCC(=O)[*:3])N[*:1])[*:2]].G.Q.G.I.I.G}|PEPTIDE2{[am]}|CHEM1{[C=C(N[*:2])c1nc(-c2nc(-c3nc(C(=O)OC)cs3)ccc2C(=O)[*:1])cs1]}$PEPTIDE1,PEPTIDE2,7:R3-1:R1|PEPTIDE1,CHEM1,1:R1-1:R1|PEPTIDE1,CHEM1,13:R2-1:R2$$$V2.0; bridges inferred) it is “+++”; for `C=C1NC(=O)[C@H](CCCC(N)=O)NC(=O)[C@H](Cc2ccc(O)cc2)NC(=O)[C@H](CC(C)C)NC(=O)[C@H](CCCC)NC(=O)[C@H](CC(N)=O)NC(=O)[C@H]([C@@H](C)O)NC(=O)[C@H](CCC(N)=O)NC(=O)[C@H](CCCCN)NC(=O)[C@H]([C@@H](C)CC)NC(=O)[C@H](CC(C)C)NC(=O)[C@H](CC(C)C)NC(=O)[C@H](C)NC(=O)[C@H](Cc2c[nH]c3ccccc23)NC(=O)c2ccc(-c3nc(C(=O)OC)cs3)nc2-c2csc1n2` [TL17] (HELM PEPTIDE1{W.A.L.L.I.K.Q.T.N.[Nle].L.Y.[O=C([C@H](CCCC(=O)[*:3])N[*:1])[*:2]]}|PEPTIDE2{[am]}|CHEM1{[C=C(N[*:2])c1nc(-c2nc(-c3nc(C(=O)OC)cs3)ccc2C(=O)[*:1])cs1]}$PEPTIDE1,PEPTIDE2,13:R3-1:R1|PEPTIDE1,CHEM1,1:R1-1:R1|PEPTIDE1,CHEM1,13:R2-1:R2$$$V2.0; bridges inferred) it is “+++”.
As for `C=C1NC(=O)[C@H]([C@@H](C)CC)NC(=O)[C@H](CO)NC(=O)[C@H](CC(=O)O)NC(=O)[C@H](CCCNC(=N)N)NC(=O)[C@H](C)NC(=O)[C@H](CCCC)NC(=O)C(=C)NC(=O)CNC(=O)[C@@H]2CCCN2C(=O)[C@H](Cc2c[nH]c3ccccc23)NC(=O)c2ccc(-c3nc(C(=O)OC)cs3)nc2-c2csc(n2)C(=C)NC1=O` [TL18] (WPG[Dha][Nle]ARDSI[Dha]; linker N-C via X2), the maturation experimental entry is on record as “+++”.
